Experimental data taken from the supplement of paper PMC11438910.
The list shows a part of the results. Most of these values are background signal.

Experiments:
Experiment in all cases: fluorescence intensity of antibody binding to polysaccharide-coupled beads; higher = stronger binding
[1] = biological target: pneumococcal polysaccharide Pn28A
[2] = biological target: pneumococcal polysaccharide Pn28F
[3] = biological target: pneumococcal polysaccharide Pn29
[4] = biological target: pneumococcal polysaccharide Pn3
[5] = biological target: pneumococcal polysaccharide Pn31
[6] = biological target: pneumococcal polysaccharide Pn32A
[7] = biological target: pneumococcal polysaccharide Pn32F
[8] = biological target: pneumococcal polysaccharide Pn33A
[9] = biological target: pneumococcal polysaccharide Pn33B
[10] = biological target: pneumococcal polysaccharide Pn33C
[11] = biological target: pneumococcal polysaccharide Pn33D
[12] = biological target: pneumococcal polysaccharide Pn33F
[13] = biological target: pneumococcal polysaccharide Pn34
[14] = biological target: pneumococcal polysaccharide Pn35A
[15] = biological target: pneumococcal polysaccharide Pn35B
[16] = biological target: pneumococcal polysaccharide Pn35C
[17] = biological target: pneumococcal polysaccharide Pn35F
[18] = biological target: pneumococcal polysaccharide Pn36
[19] = biological target: pneumococcal polysaccharide Pn37
[20] = biological target: pneumococcal polysaccharide Pn38
[21] = biological target: pneumococcal polysaccharide Pn39
[22] = biological target: pneumococcal polysaccharide Pn4
[23] = biological target: pneumococcal polysaccharide Pn40
[24] = biological target: pneumococcal polysaccharide Pn41A
[25] = antibody concentration 2337.65 ng/mL
[26] = antibody concentration 12500 ng/mL
[27] = antibody concentration 0.1 ng/mL
[28] = antibody concentration 0.534724 ng/mL
[29] = antibody concentration 2.8593 ng/mL
[30] = antibody concentration 15.2894 ng/mL
[31] = antibody concentration 81.7561 ng/mL
[32] = antibody concentration 437.17 ng/mL

B1: 4-80.2 (protein)
chain 1: QVQLQESGPGLVKPSETLSLTCAVSGDSFSSYWWSWIRQPPGKGLEWIGEINGNVGSTNYNPSLKSRVTISKDASKNQFSLKLSSVTAADTAVYYCARYKEYWGQGVLVTVSS
chain 2: DVVMTQSPLSLPITPGQPASISCRSSQSLVHSNGNTYLSWYQQKPGQPPRRLIYEVSNRDSGVPDRFSGSGAGTDFTLKISRVEAEDVGVYYCGQGTHLPYSFGQGTKVEIK
fluorescence intensity [1, 25]: 29 MFI | fluorescence intensity [1, 26]: 31 MFI | fluorescence intensity [2, 27]: 32 MFI | fluorescence intensity [2, 28]: 32.5 MFI | fluorescence intensity [2, 29]: 28 MFI | fluorescence intensity [2, 30]: 31.5 MFI | fluorescence intensity [2, 31]: 30.5 MFI | fluorescence intensity [2, 32]: 31.5 MFI | fluorescence intensity [2, 25]: 32 MFI | fluorescence intensity [2, 26]: 33 MFI | fluorescence intensity [3, 27]: 17.5 MFI | fluorescence intensity [3, 28]: 18.5 MFI | fluorescence intensity [3, 29]: 15.8 MFI | fluorescence intensity [3, 30]: 16.2 MFI | fluorescence intensity [3, 31]: 17.5 MFI | fluorescence intensity [3, 32]: 17.5 MFI | fluorescence intensity [3, 25]: 18.5 MFI | fluorescence intensity [3, 26]: 34.5 MFI | fluorescence intensity [4, 27]: 14.5 MFI | fluorescence intensity [4, 28]: 14.8 MFI | fluorescence intensity [4, 29]: 14 MFI | fluorescence intensity [4, 30]: 17 MFI | fluorescence intensity [4, 31]: 30.5 MFI | fluorescence intensity [4, 32]: 117 MFI | fluorescence intensity [4, 25]: 524 MFI | fluorescence intensity [4, 26]: 1390 MFI | fluorescence intensity [5, 27]: 15 MFI | fluorescence intensity [5, 28]: 15 MFI | fluorescence intensity [5, 29]: 15 MFI | fluorescence intensity [5, 30]: 15 MFI | fluorescence intensity [5, 31]: 14.5 MFI | fluorescence intensity [5, 32]: 14 MFI | fluorescence intensity [5, 25]: 16.5 MFI | fluorescence intensity [5, 26]: 19.5 MFI | fluorescence intensity [6, 27]: 18.8 MFI | fluorescence intensity [6, 28]: 19.5 MFI | fluorescence intensity [6, 29]: 17.5 MFI | fluorescence intensity [6, 30]: 18 MFI | fluorescence intensity [6, 31]: 17.2 MFI | fluorescence intensity [6, 32]: 18 MFI | fluorescence intensity [6, 25]: 19.5 MFI | fluorescence intensity [6, 26]: 27 MFI | fluorescence intensity [7, 27]: 30.2 MFI | fluorescence intensity [7, 28]: 28 MFI | fluorescence intensity [7, 29]: 28.5 MFI | fluorescence intensity [7, 30]: 28.2 MFI | fluorescence intensity [7, 31]: 29.5 MFI | fluorescence intensity [7, 32]: 27.5 MFI | fluorescence intensity [7, 25]: 30.5 MFI | fluorescence intensity [7, 26]: 37 MFI | fluorescence intensity [8, 27]: 20.8 MFI | fluorescence intensity [8, 28]: 19.5 MFI | fluorescence intensity [8, 29]: 17.5 MFI | fluorescence intensity [8, 30]: 19 MFI | fluorescence intensity [8, 31]: 17.8 MFI | fluorescence intensity [8, 32]: 18.2 MFI | fluorescence intensity [8, 25]: 29.2 MFI | fluorescence intensity [8, 26]: 104 MFI | fluorescence intensity [9, 27]: 20 MFI | fluorescence intensity [9, 28]: 19 MFI | fluorescence intensity [9, 29]: 18 MFI | fluorescence intensity [9, 30]: 19.2 MFI | fluorescence intensity [9, 31]: 18.5 MFI | fluorescence intensity [9, 32]: 19.8 MFI | fluorescence intensity [9, 25]: 19.2 MFI | fluorescence intensity [9, 26]: 23.5 MFI | fluorescence intensity [10, 27]: 21.5 MFI | fluorescence intensity [10, 28]: 20 MFI | fluorescence intensity [10, 29]: 19.8 MFI | fluorescence intensity [10, 30]: 20 MFI | fluorescence intensity [10, 31]: 19 MFI | fluorescence intensity [10, 32]: 21 MFI | fluorescence intensity [10, 25]: 20 MFI | fluorescence intensity [10, 26]: 28.5 MFI | fluorescence intensity [11, 27]: 18.8 MFI | fluorescence intensity [11, 28]: 18 MFI | fluorescence intensity [11, 29]: 16.5 MFI | fluorescence intensity [11, 30]: 18 MFI | fluorescence intensity [11, 31]: 15.2 MFI | fluorescence intensity [11, 32]: 14.5 MFI | fluorescence intensity [11, 25]: 16 MFI | fluorescence intensity [11, 26]: 22 MFI | fluorescence intensity [12, 27]: 15.5 MFI | fluorescence intensity [12, 28]: 13.5 MFI | fluorescence intensity [12, 29]: 13.5 MFI | fluorescence intensity [12, 30]: 13.8 MFI | fluorescence intensity [12, 31]: 14.5 MFI | fluorescence intensity [12, 32]: 14 MFI | fluorescence intensity [12, 25]: 16 MFI | fluorescence intensity [12, 26]: 42.5 MFI | fluorescence intensity [13, 27]: 14 MFI | fluorescence intensity [13, 28]: 14.5 MFI | fluorescence intensity [13, 29]: 14 MFI | fluorescence intensity [13, 30]: 14.5 MFI | fluorescence intensity [13, 31]: 15.5 MFI | fluorescence intensity [13, 32]: 14 MFI | fluorescence intensity [13, 25]: 15 MFI | fluorescence intensity [13, 26]: 16 MFI | fluorescence intensity [14, 27]: 18.5 MFI | fluorescence intensity [14, 28]: 17 MFI | fluorescence intensity [14, 29]: 18 MFI | fluorescence intensity [14, 30]: 18.2 MFI | fluorescence intensity [14, 31]: 16.2 MFI | fluorescence intensity [14, 32]: 17 MFI | fluorescence intensity [14, 25]: 20 MFI | fluorescence intensity [14, 26]: 34.2 MFI | fluorescence intensity [15, 27]: 19 MFI | fluorescence intensity [15, 28]: 19 MFI | fluorescence intensity [15, 29]: 19.5 MFI | fluorescence intensity [15, 30]: 18 MFI | fluorescence intensity [15, 31]: 18.8 MFI | fluorescence intensity [15, 32]: 17.8 MFI | fluorescence intensity [15, 25]: 20.5 MFI | fluorescence intensity [15, 26]: 32.2 MFI | fluorescence intensity [16, 27]: 20 MFI | fluorescence intensity [16, 28]: 19.5 MFI | fluorescence intensity [16, 29]: 20 MFI | fluorescence intensity [16, 30]: 20 MFI | fluorescence intensity [16, 31]: 20.5 MFI | fluorescence intensity [16, 32]: 20.5 MFI | fluorescence intensity [16, 25]: 21.5 MFI | fluorescence intensity [16, 26]: 22.8 MFI | fluorescence intensity [17, 27]: 17.2 MFI | fluorescence intensity [17, 28]: 20.5 MFI | fluorescence intensity [17, 29]: 18 MFI | fluorescence intensity [17, 30]: 20 MFI | fluorescence intensity [17, 31]: 21 MFI | fluorescence intensity [17, 32]: 18.8 MFI | fluorescence intensity [17, 25]: 20.5 MFI | fluorescence intensity [17, 26]: 23 MFI | fluorescence intensity [18, 27]: 15.8 MFI | fluorescence intensity [18, 28]: 16.5 MFI | fluorescence intensity [18, 29]: 16 MFI | fluorescence intensity [18, 30]: 15.5 MFI | fluorescence intensity [18, 31]: 15.5 MFI | fluorescence intensity [18, 32]: 16.5 MFI | fluorescence intensity [18, 25]: 18 MFI | fluorescence intensity [18, 26]: 30 MFI | fluorescence intensity [19, 27]: 26.5 MFI | fluorescence intensity [19, 28]: 26.5 MFI | fluorescence intensity [19, 29]: 26.2 MFI | fluorescence intensity [19, 30]: 26.5 MFI | fluorescence intensity [19, 31]: 25.5 MFI | fluorescence intensity [19, 32]: 27.5 MFI | fluorescence intensity [19, 25]: 32 MFI | fluorescence intensity [19, 26]: 40.5 MFI | fluorescence intensity [20, 27]: 26.5 MFI | fluorescence intensity [20, 28]: 27 MFI | fluorescence intensity [20, 29]: 27.2 MFI | fluorescence intensity [20, 30]: 26 MFI | fluorescence intensity [20, 31]: 26.2 MFI | fluorescence intensity [20, 32]: 23.8 MFI | fluorescence intensity [20, 25]: 28.5 MFI | fluorescence intensity [20, 26]: 35.8 MFI | fluorescence intensity [21, 27]: 19 MFI | fluorescence intensity [21, 28]: 19 MFI | fluorescence intensity [21, 29]: 18.5 MFI | fluorescence intensity [21, 30]: 18 MFI | fluorescence intensity [21, 31]: 19.5 MFI | fluorescence intensity [21, 32]: 18.2 MFI | fluorescence intensity [21, 25]: 19.5 MFI | fluorescence intensity [21, 26]: 31.2 MFI | fluorescence intensity [22, 27]: 20 MFI | fluorescence intensity [22, 28]: 18.5 MFI | fluorescence intensity [22, 29]: 19 MFI | fluorescence intensity [22, 30]: 20 MFI | fluorescence intensity [22, 31]: 18.5 MFI | fluorescence intensity [22, 32]: 18.2 MFI | fluorescence intensity [22, 25]: 21.5 MFI | fluorescence intensity [22, 26]: 22 MFI | fluorescence intensity [23, 27]: 17.5 MFI | fluorescence intensity [23, 28]: 17.5 MFI | fluorescence intensity [23, 29]: 16 MFI | fluorescence intensity [23, 30]: 16.5 MFI | fluorescence intensity [23, 31]: 16 MFI | fluorescence intensity [23, 32]: 18 MFI | fluorescence intensity [23, 25]: 17.2 MFI | fluorescence intensity [23, 26]: 23.5 MFI | fluorescence intensity [24, 27]: 24.5 MFI | fluorescence intensity [24, 28]: 24 MFI
